Test results reported in publication PMC11014671, “Small molecules that disrupt RAD54-BLM interaction hamper tumor proliferation in colon cancer chemoresistance models” (The Journal of Clinical Investigation, 2024).
Results are given in words; binding and its absence hold for the method and conditions named. Binding seen in cells or lysates may run through a third protein. Some binding calls cover weakened binding; strength is not graded here.

Amino acid sequences for entries named in this document (tags omitted).
UniProt O88700: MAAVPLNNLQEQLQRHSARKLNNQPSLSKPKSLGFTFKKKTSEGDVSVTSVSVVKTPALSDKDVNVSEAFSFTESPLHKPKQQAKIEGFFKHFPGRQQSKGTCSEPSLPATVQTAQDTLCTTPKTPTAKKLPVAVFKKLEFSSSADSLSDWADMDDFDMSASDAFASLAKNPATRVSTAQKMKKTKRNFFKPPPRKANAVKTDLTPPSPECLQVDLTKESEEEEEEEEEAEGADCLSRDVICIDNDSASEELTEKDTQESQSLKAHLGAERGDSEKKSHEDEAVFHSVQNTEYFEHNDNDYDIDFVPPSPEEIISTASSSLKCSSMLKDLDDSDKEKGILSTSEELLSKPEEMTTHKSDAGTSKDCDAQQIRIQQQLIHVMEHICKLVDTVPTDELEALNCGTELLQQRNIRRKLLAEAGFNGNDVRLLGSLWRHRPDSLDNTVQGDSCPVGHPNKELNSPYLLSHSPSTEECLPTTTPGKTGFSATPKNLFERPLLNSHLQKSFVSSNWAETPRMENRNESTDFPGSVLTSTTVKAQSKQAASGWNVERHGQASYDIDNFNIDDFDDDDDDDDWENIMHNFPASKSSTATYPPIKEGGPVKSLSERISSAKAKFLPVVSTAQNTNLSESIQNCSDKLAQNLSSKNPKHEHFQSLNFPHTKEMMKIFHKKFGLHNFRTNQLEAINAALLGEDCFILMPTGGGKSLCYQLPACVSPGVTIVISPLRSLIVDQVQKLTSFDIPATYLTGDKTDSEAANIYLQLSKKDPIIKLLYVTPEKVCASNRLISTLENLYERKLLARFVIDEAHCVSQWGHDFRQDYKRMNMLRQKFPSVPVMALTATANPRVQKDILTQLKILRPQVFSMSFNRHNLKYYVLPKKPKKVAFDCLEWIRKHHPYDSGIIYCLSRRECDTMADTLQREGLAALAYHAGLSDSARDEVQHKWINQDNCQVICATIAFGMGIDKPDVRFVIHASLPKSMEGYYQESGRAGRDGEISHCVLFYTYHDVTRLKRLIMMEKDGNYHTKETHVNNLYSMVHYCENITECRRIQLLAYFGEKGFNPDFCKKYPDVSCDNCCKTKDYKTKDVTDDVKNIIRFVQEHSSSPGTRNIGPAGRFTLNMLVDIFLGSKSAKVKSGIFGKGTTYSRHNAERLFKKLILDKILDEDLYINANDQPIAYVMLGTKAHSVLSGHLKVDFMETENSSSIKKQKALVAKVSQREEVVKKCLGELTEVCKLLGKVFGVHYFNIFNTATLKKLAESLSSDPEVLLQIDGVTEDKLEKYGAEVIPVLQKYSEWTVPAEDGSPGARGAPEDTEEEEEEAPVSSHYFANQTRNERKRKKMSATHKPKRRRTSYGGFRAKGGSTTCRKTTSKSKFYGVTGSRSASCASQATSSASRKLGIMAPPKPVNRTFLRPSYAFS

Biological target: T1, RAD54 (endogenous, murine CT26 cells) (mouse (endogenous in CT26)) (UniProt P70270)
T1 sequence: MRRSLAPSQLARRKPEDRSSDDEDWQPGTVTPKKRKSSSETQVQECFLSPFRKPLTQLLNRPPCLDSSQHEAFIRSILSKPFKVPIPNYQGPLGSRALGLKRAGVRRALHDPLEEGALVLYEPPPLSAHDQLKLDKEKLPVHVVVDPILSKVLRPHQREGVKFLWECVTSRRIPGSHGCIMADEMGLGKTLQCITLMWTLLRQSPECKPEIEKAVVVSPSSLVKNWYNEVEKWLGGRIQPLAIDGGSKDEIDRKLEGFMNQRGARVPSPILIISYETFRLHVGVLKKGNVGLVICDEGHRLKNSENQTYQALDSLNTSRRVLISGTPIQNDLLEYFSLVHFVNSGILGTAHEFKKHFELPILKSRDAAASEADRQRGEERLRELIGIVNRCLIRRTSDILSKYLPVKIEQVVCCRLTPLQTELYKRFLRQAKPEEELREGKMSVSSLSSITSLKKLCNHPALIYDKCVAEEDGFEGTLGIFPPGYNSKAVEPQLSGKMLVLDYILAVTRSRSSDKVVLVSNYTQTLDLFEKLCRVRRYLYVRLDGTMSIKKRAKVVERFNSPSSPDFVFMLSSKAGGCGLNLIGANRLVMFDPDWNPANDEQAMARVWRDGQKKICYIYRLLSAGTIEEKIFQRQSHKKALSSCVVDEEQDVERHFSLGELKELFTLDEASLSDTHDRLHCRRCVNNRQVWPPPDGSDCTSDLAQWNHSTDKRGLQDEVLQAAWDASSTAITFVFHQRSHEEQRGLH
Test: co-IP; lysates of HCT116 (human) or CT26 (murine) cells immunoprecipitated with anti-RAD54 antibodies, immunoprecipitates probed with anti-BLM antibodies; anti-IgG as control

binding: binds
Substance: BLM (endogenous, murine CT26 cells) (from UniProt O88700 1-1416)
